The values are deposited in ChEMBL (CHEMBL3988442, “University of Dundee, Small-Polar-MMV Screening Library” (2021)).

Chains of the proteins cited; added tags and fusions are not shown. Residues count along the entry.
UniProt Q8IDJ8, 1-583: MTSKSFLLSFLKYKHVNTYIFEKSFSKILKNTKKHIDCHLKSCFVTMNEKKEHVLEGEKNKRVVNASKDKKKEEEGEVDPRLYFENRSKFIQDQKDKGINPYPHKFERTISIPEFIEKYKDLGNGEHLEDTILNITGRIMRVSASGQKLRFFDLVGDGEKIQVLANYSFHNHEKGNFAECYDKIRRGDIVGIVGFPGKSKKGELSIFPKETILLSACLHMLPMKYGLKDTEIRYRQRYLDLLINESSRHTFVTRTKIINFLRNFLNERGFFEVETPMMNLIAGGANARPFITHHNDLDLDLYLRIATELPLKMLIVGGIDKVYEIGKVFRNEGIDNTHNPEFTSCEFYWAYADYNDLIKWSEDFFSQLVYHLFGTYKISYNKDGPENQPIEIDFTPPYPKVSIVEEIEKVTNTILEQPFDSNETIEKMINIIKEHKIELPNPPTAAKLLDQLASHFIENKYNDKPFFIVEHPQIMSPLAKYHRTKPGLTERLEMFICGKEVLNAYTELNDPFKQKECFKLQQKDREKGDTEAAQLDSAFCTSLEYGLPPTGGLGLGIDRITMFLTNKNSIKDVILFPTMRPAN
UniProt P9WFT3, whole entry: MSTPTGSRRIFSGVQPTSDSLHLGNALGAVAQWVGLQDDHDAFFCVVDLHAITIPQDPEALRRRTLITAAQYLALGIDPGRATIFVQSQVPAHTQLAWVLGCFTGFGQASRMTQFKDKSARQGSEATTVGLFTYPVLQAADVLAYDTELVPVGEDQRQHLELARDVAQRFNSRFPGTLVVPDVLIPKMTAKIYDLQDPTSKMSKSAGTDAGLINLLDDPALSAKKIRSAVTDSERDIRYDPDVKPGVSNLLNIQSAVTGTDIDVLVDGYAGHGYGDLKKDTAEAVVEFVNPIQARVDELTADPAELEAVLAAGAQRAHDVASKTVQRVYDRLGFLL
UniProt P9WPC5, whole entry: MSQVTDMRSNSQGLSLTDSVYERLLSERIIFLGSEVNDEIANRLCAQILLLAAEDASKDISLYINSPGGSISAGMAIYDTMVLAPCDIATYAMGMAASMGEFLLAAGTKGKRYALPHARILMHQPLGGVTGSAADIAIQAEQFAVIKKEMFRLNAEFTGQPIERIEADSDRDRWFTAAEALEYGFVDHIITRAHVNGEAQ
UniProt P9WPC3, whole entry partner: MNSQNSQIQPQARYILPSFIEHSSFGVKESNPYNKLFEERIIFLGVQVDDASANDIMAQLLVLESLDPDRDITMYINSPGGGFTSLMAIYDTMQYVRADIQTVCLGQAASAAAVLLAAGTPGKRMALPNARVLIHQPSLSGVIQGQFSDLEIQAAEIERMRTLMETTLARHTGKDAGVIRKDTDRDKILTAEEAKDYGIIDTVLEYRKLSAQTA
UniProt Q4DA54, 1-478: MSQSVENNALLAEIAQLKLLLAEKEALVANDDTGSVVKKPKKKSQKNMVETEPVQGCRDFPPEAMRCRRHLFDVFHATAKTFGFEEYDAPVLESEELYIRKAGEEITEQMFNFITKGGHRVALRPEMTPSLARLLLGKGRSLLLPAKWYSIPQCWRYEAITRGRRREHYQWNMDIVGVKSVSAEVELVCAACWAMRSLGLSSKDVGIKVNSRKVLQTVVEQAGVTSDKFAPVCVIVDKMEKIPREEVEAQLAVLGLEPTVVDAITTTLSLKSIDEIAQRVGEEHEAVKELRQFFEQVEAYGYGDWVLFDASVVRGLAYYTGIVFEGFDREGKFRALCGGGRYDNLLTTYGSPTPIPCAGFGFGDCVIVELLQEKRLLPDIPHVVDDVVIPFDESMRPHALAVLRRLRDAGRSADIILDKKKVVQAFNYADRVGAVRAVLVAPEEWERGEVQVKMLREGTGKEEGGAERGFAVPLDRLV

Results are given as percent effect. How 0% and 100% were set is not recorded. Most values in the screen are low, and negative values occur. The compounds are a random part of those screened.

PfKRS1: 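Enzyme assay of the cytosolic lysyl-tRNA synthetase in 384-well plates, read by luminescence. Target: Lysine-tRNA ligase, Plasmodium falciparum 3D7 (UniProt Q8IDJ8). Concentration: 30 µM. Higher reads as stronger inhibition, judged from the few compounds that gave an IC50. About 69,000 compounds were tested under these conditions; 0.071% (about 49) showed 50% or more at least once.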
MtTrpRS: 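Tryptophan-tRNA ligase, Mycobacterium tuberculosis (UniProt P9WFT3). Enzyme assay of tryptophanyl-tRNA synthetase; the read-out is not stated. Tested at 10 µM. Higher most likely means stronger inhibition; the record gives no direction and few retests gave an IC50. About 65,000 compounds were tested under these conditions; 0.098% (about 64) showed 50% or more at least once.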
ClpP1P2: 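Protease assay of ClpP1P2, read by the AMC dye that it sets free. Target: ClpP1P2, Mycobacterium tuberculosis (UniProt P9WPC5 and UniProt P9WPC3). Concentration: 50 µM. Higher reads as stronger inhibition, judged from the few compounds that gave an IC50. Most other retested compounds had strongly negative values. Size under these conditions: about 69,000 compounds, about 10 of them at 50% or above in at least one test.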
TcHisRS: 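Histidine-tRNA ligase, Trypanosoma cruzi CL Brener (UniProt Q4DA54). Enzyme assay of histidyl-tRNA synthetase; the read-out is not stated. Concentration: 30 µM. Direction is inferred from retests: higher values go with stronger inhibition. Of about 69,000 compounds tested this way, about 31 (0.045%) reached 50% or more in at least one test.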

* Clc1cnccc1N1CCCC2(CCCOC2)C1 (stereo not given) : PfKRS1: 5.966%; MtTrpRS: 0.273%; ClpP1P2: -6.396%; TcHisRS: 3.191%
* CCN(Cc1ccoc1)C(=O)c1ccc(C)c(S(N)(=O)=O)c1 : PfKRS1: 3.179%; MtTrpRS: -2.279%; ClpP1P2: 8.542%; TcHisRS: 2.646%
* COc1ccc(CN2CCC3(CC2)CCN(CC(=O)N(C)C)C3=O)cc1 : PfKRS1: 0.5059%; MtTrpRS: -6.831%; ClpP1P2: -1.688%; TcHisRS: 5.825%
* Cc1nn(CC(=O)N2CCN(Cc3cnn(C)c3C)CC2)cc1Br : PfKRS1: 0.6864%; MtTrpRS: 10.16%; ClpP1P2: -3.323%; TcHisRS: -21.78%
* Cc1cccc(C(C(=O)NCc2nc(-c3cccnc3)no2)N(C)C)c1 (stereo not given) : PfKRS1: -1.945%; MtTrpRS: 9.586%; ClpP1P2: 11.42%; TcHisRS: -3.185%
* CNc1snc(C)c1C(=O)N1CCCC(n2ccnc2C(C)C)C1 (stereo not given) : PfKRS1: -0.1316%; MtTrpRS: -1.267%; ClpP1P2: 5.971%; TcHisRS: -1.887%
* CCN(Cc1cnn(C)c1)C[C@H]1CC[C@@H](Cc2cccc(C#N)c2)O1 : PfKRS1: 2.069%; MtTrpRS: -1.135%; ClpP1P2: -6.257%; TcHisRS: -0.5525%
* CSc1cccc(CN2CCn3nc(CNC(C)=O)cc3C2)c1 : PfKRS1: 6.743%; MtTrpRS: -0.136%; ClpP1P2: -13.93%; TcHisRS: -1.22%
* COCCN1CCO[C@H]2CN(Cc3cccc(C)n3)C[C@H]21 : PfKRS1: 2.714%; ClpP1P2: -2.709%; TcHisRS: 12.56%
* Cc1cc(C(=O)NCC(C)N2CCc3ccccc32)on1 (stereo not given) : PfKRS1: -1.621%; MtTrpRS: 0.8518%; ClpP1P2: -9.996%; TcHisRS: 8.832%
* CCC(NC(=O)C1CCN(C(=O)C2CC2)CC1)c1cn2cccnc2n1 (stereo not given) : PfKRS1: 2.363%; MtTrpRS: 1.083%; ClpP1P2: -2.761%; TcHisRS: 0%
* O=C(c1ccc2cc[nH]c2c1)N1CCC(Nc2cccnn2)CC1 : PfKRS1: 0.3301%; MtTrpRS: 0.9737%; ClpP1P2: -16.99%; TcHisRS: 2.299%
* c1cc2c(cc1CN(Cc1nc(C3CC3)no1)C1CCCC1)OCO2 : PfKRS1: 4.092%; MtTrpRS: 2.257%; ClpP1P2: -9.431%; TcHisRS: 2.326%
* O=C(COCC1CC1)N1CCN(C(=O)Cc2ccccn2)CC1 : PfKRS1: 8.247%; MtTrpRS: -1.141%; ClpP1P2: -2.402%; TcHisRS: 3.448%
* O=C(NCCCNC(=O)c1ccc(F)cc1F)c1cccc(O)c1 : PfKRS1: 4.198%; MtTrpRS: 3.522%; ClpP1P2: 1.659%; TcHisRS: 9.548%
* Cc1ccc(S(=O)(=O)N2CCOCC2C#N)c(F)c1 (stereo not given) : PfKRS1: 1.096%; MtTrpRS: -0.6461%; ClpP1P2: -13.3%; TcHisRS: 4.386%
* Cn1cc(N2CCC(NC(=O)c3c(F)cccc3Cl)C2=O)cn1 (stereo not given) : PfKRS1: 2.191%; MtTrpRS: 1.319%; ClpP1P2: -3.066%; TcHisRS: 4.651%
* CC(C)c1noc(C(C)N2CCN(Cc3ccco3)CC2)n1 (stereo not given) : PfKRS1: -0.5266%; MtTrpRS: 0.2924%; ClpP1P2: 0.3898%; TcHisRS: 1.515%
* COc1ncccc1CN1CC[C@H]2O[C@H](c3nnc(C)o3)CC[C@H]21 : PfKRS1: 5.935%; MtTrpRS: 2.05%; ClpP1P2: 0.3082%; TcHisRS: -1.266%
* O=C(c1ccsc1)N1CCc2c(CNc3nccs3)n[nH]c2C1 : PfKRS1: 3.321%; MtTrpRS: -8.085%; ClpP1P2: -16.61%; TcHisRS: 9.453%
* CCc1nc(C2CCCN2Cc2cc(=O)n(C)c(=O)n2C)no1 (stereo not given) : PfKRS1: 1.254%; MtTrpRS: -5.185%; ClpP1P2: -28.63%; TcHisRS: 0.565%
* CC(=O)N1CCCC(c2ccc(CO)c(-c3c(C)noc3C)n2)C1 (stereo not given) : PfKRS1: -0.304%; MtTrpRS: 4.903%; ClpP1P2: -8.082%; TcHisRS: -0.8571%
* CN(CC(=O)N(C)C(c1ccc(Cl)cc1)c1cccnc1)C1CC1 (stereo not given) : PfKRS1: 10.42%; MtTrpRS: 3.055%; ClpP1P2: 15.51%; TcHisRS: 6.931%
* Cc1noc(C)c1CN1C[C@@H]2CN(C(=O)c3cnccn3)C[C@@H]2C1 : PfKRS1: 2.56%; MtTrpRS: 1.48%; ClpP1P2: -1.337%; TcHisRS: 7.527%
* CC(C)N1CCO[C@@H]2CN(S(=O)(=O)c3cccs3)CC[C@@H]2C1 : PfKRS1: 5.027%; ClpP1P2: 12.6%; TcHisRS: 5.556%
* CC(C)N1CC[C@H](c2nnc(Cc3c[nH]c4ccccc34)o2)C1 : PfKRS1: 6.093%; MtTrpRS: -1.907%; ClpP1P2: -0.9754%; TcHisRS: 4.478%
* CC(C)C1CCCN1CC(=O)NCc1ccc(OCC(N)=O)cc1 (stereo not given) : PfKRS1: 6.162%; MtTrpRS: -2.957%; ClpP1P2: -10.74%; TcHisRS: 0.4425%
* Cc1nn(C)c(C)c1OCC(=O)N1CCCCC1 : PfKRS1: -4.495%; MtTrpRS: 2.167%; ClpP1P2: -8.531%; TcHisRS: 6.494%
* COCCCN(CCOC)C(=O)Nc1ccc(Br)cc1 : PfKRS1: 6.896%; MtTrpRS: 4.842%; ClpP1P2: 4.178%; TcHisRS: 5.528%
* CC(C)N1CCC(C(=O)N2CCC(c3ccc(F)cc3)C2)CC1 (stereo not given) : PfKRS1: 2.81%; MtTrpRS: 0.5198%; ClpP1P2: 5.651%; TcHisRS: 3.911%
* CC(C)(CO)CCCNC(=O)NC1(C)Cc2ccccc2C1 : PfKRS1: -7.391%; MtTrpRS: -0.7342%; ClpP1P2: -0.2185%; TcHisRS: 2%
* Cc1noc(C(C)N2CCN(CCC(=O)N3CCOCC3)CC2)n1 (stereo not given) : PfKRS1: 4.059%; MtTrpRS: 5.576%; ClpP1P2: -4.109%; TcHisRS: -11.56%
* Cc1nc(CN(C)C)cc(N2CCCC(COc3ccc(F)cc3)C2)n1 (stereo not given) : PfKRS1: 1.959%; MtTrpRS: -6.588%; ClpP1P2: -9.847%; TcHisRS: 18.23%
* COc1c(CNCc2cccnc2N2CCCCC2)c(C)nn1C : PfKRS1: 0.3786%; MtTrpRS: -1.001%; ClpP1P2: -3.659%; TcHisRS: 4.02%

Repeated from the top, 4 entries:

* Clc1cnccc1N1CCCC2(CCCOC2)C1 (stereo not given) : PfKRS1: 5.966%; MtTrpRS: 0.273%; ClpP1P2: -6.396%; TcHisRS: 3.191%
* CCN(Cc1ccoc1)C(=O)c1ccc(C)c(S(N)(=O)=O)c1 : PfKRS1: 3.179%; MtTrpRS: -2.279%; ClpP1P2: 8.542%; TcHisRS: 2.646%
* COc1ccc(CN2CCC3(CC2)CCN(CC(=O)N(C)C)C3=O)cc1 : PfKRS1: 0.5059%; MtTrpRS: -6.831%; ClpP1P2: -1.688%; TcHisRS: 5.825%
* Cc1nn(CC(=O)N2CCN(Cc3cnn(C)c3C)CC2)cc1Br : PfKRS1: 0.6864%; MtTrpRS: 10.16%; ClpP1P2: -3.323%; TcHisRS: -21.78%